The assay concerns the target T1, TAP-tagged Fun30^Fft3 (fission yeast (S. pombe)) (UniProt O42861).
T1 sequence: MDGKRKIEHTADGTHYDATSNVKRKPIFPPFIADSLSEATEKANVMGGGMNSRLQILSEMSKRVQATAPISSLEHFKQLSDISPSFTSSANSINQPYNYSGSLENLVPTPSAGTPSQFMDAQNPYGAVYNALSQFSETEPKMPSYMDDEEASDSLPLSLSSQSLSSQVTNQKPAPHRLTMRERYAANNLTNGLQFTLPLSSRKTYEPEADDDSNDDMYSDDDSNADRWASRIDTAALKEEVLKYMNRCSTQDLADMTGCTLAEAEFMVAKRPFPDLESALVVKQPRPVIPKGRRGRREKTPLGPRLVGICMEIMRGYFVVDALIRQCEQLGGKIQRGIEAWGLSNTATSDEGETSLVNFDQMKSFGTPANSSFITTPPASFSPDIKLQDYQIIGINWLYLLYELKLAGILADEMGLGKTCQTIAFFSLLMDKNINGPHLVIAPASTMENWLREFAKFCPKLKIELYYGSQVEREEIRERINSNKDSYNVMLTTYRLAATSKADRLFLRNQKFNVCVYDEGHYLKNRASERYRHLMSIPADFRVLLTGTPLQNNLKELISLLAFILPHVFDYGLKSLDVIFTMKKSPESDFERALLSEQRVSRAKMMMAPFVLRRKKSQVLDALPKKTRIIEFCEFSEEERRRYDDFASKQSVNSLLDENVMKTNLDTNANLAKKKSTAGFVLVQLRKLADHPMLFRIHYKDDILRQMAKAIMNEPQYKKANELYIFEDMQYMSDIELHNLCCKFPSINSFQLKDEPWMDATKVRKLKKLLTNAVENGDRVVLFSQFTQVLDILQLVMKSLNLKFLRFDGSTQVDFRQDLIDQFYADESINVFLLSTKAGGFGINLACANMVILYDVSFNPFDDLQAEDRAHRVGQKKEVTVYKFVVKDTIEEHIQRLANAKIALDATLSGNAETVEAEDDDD
As to the kind of experiment: affinity purification with mass spectrometry; tandem affinity purification (TAP) of Fun30^Fft3 from fission yeast followed by MudPIT; Workman buffer with 350 mM NaCl; non-tagged strain purified in parallel.

The chains behind the UniProt entries cited, without tags or fusion partners.
UniProt O94267: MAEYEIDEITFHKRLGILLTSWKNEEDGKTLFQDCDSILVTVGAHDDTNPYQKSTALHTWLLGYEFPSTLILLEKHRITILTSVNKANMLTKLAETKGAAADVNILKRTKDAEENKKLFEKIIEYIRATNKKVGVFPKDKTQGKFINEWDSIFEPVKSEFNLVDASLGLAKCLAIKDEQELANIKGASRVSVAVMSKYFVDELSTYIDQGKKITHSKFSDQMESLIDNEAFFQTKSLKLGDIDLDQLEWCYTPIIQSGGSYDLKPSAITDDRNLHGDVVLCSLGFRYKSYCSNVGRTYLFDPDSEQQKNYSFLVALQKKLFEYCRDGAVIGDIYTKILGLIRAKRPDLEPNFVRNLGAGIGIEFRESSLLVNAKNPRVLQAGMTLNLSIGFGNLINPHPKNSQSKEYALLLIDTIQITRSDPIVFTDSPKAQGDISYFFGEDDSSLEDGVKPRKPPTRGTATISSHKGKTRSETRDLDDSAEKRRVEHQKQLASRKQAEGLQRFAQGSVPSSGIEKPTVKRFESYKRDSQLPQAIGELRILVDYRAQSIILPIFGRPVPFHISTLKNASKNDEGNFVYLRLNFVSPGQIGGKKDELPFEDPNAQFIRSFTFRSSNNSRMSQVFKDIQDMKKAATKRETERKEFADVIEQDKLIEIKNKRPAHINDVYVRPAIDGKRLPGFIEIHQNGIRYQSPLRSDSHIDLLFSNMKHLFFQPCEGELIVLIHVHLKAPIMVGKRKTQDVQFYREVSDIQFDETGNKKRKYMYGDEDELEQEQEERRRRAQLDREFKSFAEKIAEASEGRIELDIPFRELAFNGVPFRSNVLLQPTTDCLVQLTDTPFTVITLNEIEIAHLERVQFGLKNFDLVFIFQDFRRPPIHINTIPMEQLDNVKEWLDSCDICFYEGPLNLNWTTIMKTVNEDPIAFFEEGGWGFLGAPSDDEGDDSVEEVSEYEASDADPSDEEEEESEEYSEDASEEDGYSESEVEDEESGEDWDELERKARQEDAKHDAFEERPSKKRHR

No constants are given. Whether binding was seen depends on the method and setting. Binding seen in cells or lysates may run through a third protein. These calls come from enrichment with a bait or labelling near it, and not all partners need be listed. Where a sequence is shown, tags or fusion partners need not be part of it.

Spt16 (from UniProt O94267 1-1019): the binding result was “binds”.

These data come from article PMC5321744.
